Experimental data as given in patent US20080176781A1, “Perfumes for linear citrus release in rinse-off systems” (priority 2007, published 2008).

Test: Percent odor contribution within a water release group
[1] = within its water release group, Delayed Citrus-Fruity Linear Release Perfume
[2] = within its water release group, Citrus-Cucumber Sustained Release Type Fragrance
[3] = within its water release group, Delayed Citrus-Floral Linear Release
[4] = within its water release group, Deposition/Linear Release Citrus Perfume
[5] = within its water release group, Flash Release Type Citrus
[6] = within its water release group, Flash Release Type Citrus - Cucumber
[7] = within its water release group, Sustained Citrus-Floral Linear Release
[8] = within its water release group, Citrus Sustained Release Type Fragrance
[9] = within its water release group, Flash Release Citrus Fruity perfume
[10] = within its release group, Sustained Release Citrus-Fruity perfume
[11] = within its water release group, Delayed Linear Release Cucumber-Citrus Perfume
[12] = within its water release group, Flash Release Citrus-Floral

SMILES: CC1=CCC(C(C)CC2CCCC2=O)CC1 (stereo not shown)
- % Odor [1]: 67.96%

SMILES: C=CC(C)(O)CCC=C(C)CC (mixture of isomers) [ETHYL LINALOOL]
- % Odor Contribution [2]: 67.16%
- % Odor Contribution [3]: 0.95%
- % Odor Contribution [4]: 2.89%
- % Odor Contribution [5]: 41.86%
- % Odor Contribution [6]: 46.15%
- % Odor Contribution [7]: 0.97%

SMILES: CC1=CCC(C=CC(C)C(C)O)C1(C)C (stereo in doubt) [EBANOL]
- % Odor Contribution [8]: 0.01%
- % Odor Contribution [5]: 0.04%

SMILES: CCCCCCCCCC=O [ALDEHYDE C10 (DECANAL), DECANAL]
- % Odor Contribution [3]: 1.70%

SMILES: CCCCCCCC=O [ALDEHYDE C 8 (OCTANAL), OCTANAL]
- % Odor Contribution [2]: 0.88%
- % Odor Contribution [3]: 3.65%
- % Odor [9]: 0.08%
- % Odor Contribution [7]: 1.26%

SMILES: C=CCOC(=O)CCCCC [ALLYL CAPROATE]
- % Odor [10]: 7.62%

SMILES: CC(OC=O)C1CCCC(C)(C)C1 (stereo not shown) [APHERMATE]
- % Odor [1]: 0.56%

SMILES: CCOC(=O)CC1(C)OCCO1 [APPLINAL]
- % Odor Contribution [4]: 0.63%

SMILES: CC(=O)OCc1ccccc1 [BENZYL ACETATE]
- % Odor Contribution [3]: 3.70%
- % Odor Contribution [7]: 2.56%

SMILES: CCCCCC1CC(=O)C=C(C)C1C(=O)OCC (stereo not shown) [CALYXOL]
- % Odor Contribution [3]: 4.10%
- % Odor Contribution [7]: 0.30%

SMILES: CC/C=C\CCOC(C)=O [CIS-3-HEXENYL ACETATE]
- % Odor Contribution [2]: 0.26%
- % Odor Contribution [3]: 1.10%
- % Odor Contribution [6]: 0.35%
- % Odor Contribution [7]: 0.38%

SMILES: CC/C=C\CCOC(=O)c1ccccc1O [CIS-3-HEXENYL SALICYLATE]
- % Odor Contribution [8]: 9.82%
- % Odor Contribution [6]: 2.62%

SMILES: CC(C)=CCCC(C)CC=O (stereo not shown) [CITRONELLAL]
- % Odor Contribution [3]: 16.97%
- % Odor Contribution [4]: 30.94%
- % Odor [9]: 17.18%

SMILES: CC(C)=CCCC(C)CCO (stereo not shown) [CITRONELLOL]
- % Odor Contribution [4]: 52.81%

SMILES: CC(C)=CCCC(C)CC#N (stereo not shown) [CITRONELLYL NITRILE]
- % Odor Contribution [3]: 2.63%
- % Odor Contribution [11]: 6.61%
- % Odor Contribution [4]: 1.62%
- % Odor Contribution [12]: 6.73%

SMILES: C=CC(C)CCCC(C)(C)O (stereo not shown) [DIHYDROMYRCENOL]
- % Odor Contribution [2]: 1.67%
- % Odor Contribution [7]: 0.80%

SMILES: CC(=O)OC(C)(C)Cc1ccccc1 [DIMETHYL BENZYL CARBINYL ACETATE]
- % Odor [10]: 68.23%
- % Odor [9]: 69.13%

SMILES: CCOC(=O)C(C)CC (stereo not shown) [ETHYL 2-METHYL BUTYRATE, Ethyl 2-methylbutyrate]
- % Odor Contribution [4]: 60.58%
- % Odor Contribution [5]: 0.60%

SMILES: CCC(C)C(=O)N(C)c1ccccc1 (stereo not shown) [GARDAMIDE]
- % Odor [1]: 99.79%

SMILES: CC(=O)OC/C=C(\C)CCC=C(C)C [GERANYL ACETATE]
- % Odor Contribution [7]: 1.68%

SMILES: CC(CC=O)CCCC(C)(C)O (stereo not shown) [HYDROXYCITRONELLAL]
- % Odor Contribution [3]: 0.62%
- % Odor Contribution [7]: 0.61%

SMILES: CC1=CC(C)C(C=O)CC1 (stereo not shown) [LIGUSTRAL]
- % Odor Contribution [6]: 0.54%

SMILES: C=CC(C)(O)CCC=C(C)C (stereo not shown) [LINALOOL, linalool]
- % Odor Contribution [11]: 12.04%

SMILES: CC(CC=O)CCc1ccccc1 (stereo not shown) [MEFRANAL]
- % Odor Contribution [5]: 100.00%

SMILES: CCCCCC1C(=O)CCC1CC(=O)OC (stereo not shown) [METHYL DIHYDRO JASMONATE]
- % Odor Contribution [5]: 95.62%

SMILES: CCCCCCC#CC(=O)OC [METHYL OCTINE CARBONATE]
- % Odor Contribution [11]: 21.76%

SMILES: CCC(CC)C(=O)N(C)c1cccc(C)c1 [PARADISAMIDE]
- % Odor Contribution [2]: 96.99%
- % Odor Contribution [3]: 86.08%
- % Odor Contribution [11]: 33.88%

SMILES: CC(C)C(=O)OCCOc1ccccc1 [PHENOXY ETHYL ISOBUTYRATE]
- % Odor [9]: 89.96%

SMILES: CC(=O)OCCc1ccccc1 [PHENYL ETHYL ACETATE]
- % Odor Contribution [3]: 0.23%
- % Odor Contribution [7]: 0.23%

SMILES: CC1CC(C)(c2ccccc2)CO1 (stereo not shown) [RHUBAFURAN]
- % Odor [10]: 0.80%
- % Odor Contribution [3]: 0.16%
- % Odor Contribution [6]: 6.62%
- % Odor Contribution [7]: 0.16%

SMILES: CC(C)CC1CCCC(C)(O)C1 (stereo not shown) [ROSSITOL]
- % Odor Contribution [2]: 10.38%
- % Odor Contribution [3]: 0.16%
- % Odor Contribution [11]: 10.19%
- % Odor Contribution [4]: 1.32%
- % Odor Contribution [6]: 6.82%
- % Odor Contribution [7]: 0.16%

SMILES: CCC(C)(O)CCCC(C)C (stereo not shown) [TETRAHYDROLINALOOL]
- % Odor Contribution [8]: 2.90%

SMILES: CC/C=C\CC/C=C/C=O [TRANS 2 CIS 6 NONADIENAL]
- % Odor Contribution [11]: 4.06%
- % Odor Contribution [6]: 6.10%

SMILES: CCCCCCCCCCC=CC#N [TRIDECEN 2 NITRILE]
- % Odor Contribution [11]: 0.19%
- % Odor Contribution [6]: 0.62%
- % Odor Contribution [7]: 0.13%

SMILES: C=C(C)[C@H]1CC=C(C)CC1 [d-LIMONENE, d-1-Methyl-4-isopropenyl-1-cyclohexene]
- % Odor Contribution [8]: 65.04%
- % Odor Contribution [3]: 100.00%
- % Odor Contribution [12]: 100.00%
- % Odor Contribution [7]: 100.00%
